Results reported in PubChem BioAssay AID624297 (National Center for Advancing Translational Sciences (NCATS), 2012).
The whole screen tested about 340,000 compounds, of which about 6,200 (1.8%) were called active. Inconclusive means that the source gave no clear call. Such entries were picked first, then a sample of the others. The call rests on the fitted dose curve; in most records, active means well fitted activation curve with a large enough effect; inconclusive means small, poorly fitted or top-dose-only effect; inactive means no such curve, though single readings can be large or run the other way. Where the call is inconclusive, the potency comes from a doubtful curve fit.
Potency means the concentration at half of the fitted maximal effect.

Assay: A quantitative high throughput screen for small molecules that induce DNA re-replication in SW480 colon adenocarcinoma cells. Further: nearly all actives have a fitted effect of over 55% in size. On re-replication activation: % of control where 0% means no effect.
Conditions: Hoechst DNA content imaging, 48 h; re-replication activation: at 46.1 µM (top of the series) unless noted
Outline: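 Per well, 250 cells were exposed to pinned compound for 48 hr. Nuclear DNA was visualised with Hoechst (40 min, 37 C) and total object intensity recorded by fluorescence scanning.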
In the case of `CCOc1ccccc1NC(=O)C(OC(=O)c1ccc(NC(=O)CC#N)cc1)c1ccccc1` (stereo not drawn), the “re-replication activation” value is reported as inactive: 11.9%. For `Cc1ccc(Cn2cc(C(=O)NN)c(=O)c3ccc(F)cc32)cc1`, the Potency was inconclusive: 23.1 µM [activator, single point]. For `COc1cc2c(C#CCCCO)c(-c3ccsc3)oc(=O)c2cc1OC`, the Potency was inconclusive: 25.9 µM [activator, single point]. In the case of `S=C1NC2(CCCCCC2)N=C1c1ccccc1`, the “re-replication activation” value is reported as inactive: -39.4%. With `CC1(c2ccc(OC(F)F)cc2)NC(=O)N(CC(=O)Nc2ccc3[nH]c(=O)[nH]c3c2)C1=O` (stereo not drawn) the Potency was inconclusive: 1.16 µM [activator, full curve, poor fit]. With `Cc1ccc(NC(=O)CSc2nc(N)cc(=O)[nH]2)cc1S(=O)(=O)N1CCCCCC1` the “re-replication activation” value was inactive: 2.79%. With `COc1cccc(NC(=O)c2cc3ccccc3o/c2=N\O)c1` the Potency was inconclusive: 29.1 µM [activator, partial curve, poor fit]. For `CCC(C)(C)C1CCC2(CC1)NC(=O)N(CC(=O)N1CCN(S(=O)(=O)c3cc(C)ccc3C)CC1)C2=O` (stereo not drawn), the Potency was inconclusive: 6.51 µM [activator, partial curve, poor fit]. For `Cc1ccc(S(=O)(=O)N(CC(=O)N2CCc3ccccc3C2)c2ccc(Cl)c(Cl)c2)cc1`, the Potency was inconclusive: 29.1 µM [activator, partial curve, poor fit]. In the case of `O=C(NN=Cc1cccc2ccccc12)C(=O)NN=Cc1cccc2ccccc12`, the Potency is reported as inconclusive: 5.8 µM [activator, full curve, poor fit]. For `CC1=C/C(=C/N(C)C)C(=O)O1`, the “re-replication activation” value was inactive: 14.5%. For `CCc1cc(=O)oc2cc(C)cc(OCC(=O)NCCc3c[nH]c4ccccc34)c12`, the Potency was inconclusive: 0.0651 µM [activator, full curve, poor fit]. With `O=C(CCN1CCOCC1)N/N=C/c1cc([N+](=O)[O-])ccc1OC(F)F` the Potency was inconclusive: 29.1 µM [activator, single point]. In the case of `C=CCNC(=O)CC(=O)N/N=C/c1cccs1`, the “re-replication activation” value is reported as inactive: 5.34%. For `Clc1ccc2[nH]c3c(N4CCC5(CC4)OCCO5)ncnc3c2c1`, the Potency was inconclusive: 29.1 µM [activator, single point]. For `CCCCOc1ccc(CSC(=N)N)cc1Cl`, the Potency was inconclusive: 18.4 µM [activator, single point]. For `NC(=S)NN=C1CCCCC12CCCC2`, the Potency was inconclusive: 29.1 µM [activator, single point]. With `O=C(CNC(=O)c1cccs1)N=Nc1c(O)[nH]c2ccc([N+](=O)[O-])cc12` the re-replication activation was inconclusive: -31.5% [activator]. In the case of `CC(C)(C)c1cc(OC(=O)c2ccncc2)ccc1O`, the “re-replication activation” value is reported as inactive: -1.78%. In the case of `CC(C)SCC(=O)Nc1ncc2c(n1)-c1ccccc1CC2`, the Potency is reported as inconclusive: 9.2 µM [activator, partial curve, poor fit]. With `COc1ccc(CN(CCN)C2CC(C)N(C)CC2C)cc1` (stereo not drawn) the re-replication activation was inactive: -4.57% [at 9.22 µM]. With `COC(=O)c1cccc(NC(=S)NCc2ccc(F)cc2)c1` the “re-replication activation” value was inactive: -1.65%. In the case of `COc1ccccc1OCCCCCNCCO`, the Potency is reported as inconclusive: 11.6 µM [activator, partial curve, poor fit]. With `CC(C)n1c(-c2ccccc2)nc(=S)c2c1CCCC2` the re-replication activation was inconclusive: 520% [activator]. In the case of `COc1ccc(-c2onc(C)c2C)cc1S(=O)(=O)NCCc1ccco1`, the Potency is reported as inconclusive: 3.66 µM [activator, full curve, poor fit]. With `Cc1ccc(CNc2nc(C)cs2)cc1` the Potency was inconclusive: 3.26 µM [activator, partial curve, poor fit]. In the case of `Cc1cc(=O)c(C(=O)Nc2cccc(C(=O)NC3CC3)c2)nn1-c1ccccc1Cl`, the Potency is reported as inconclusive: 23.1 µM [activator, single point]. For `Oc1ccc2ccccc2c1CNc1cnc2ccccc2c1`, the “re-replication activation” value was inactive: -2.32%. With `CC(O)C(=O)N/N=C/c1cccc2ccccc12` (stereo not drawn) the “re-replication activation” value was inactive: -13%. With `CCn1c(SCC(=O)NC2CCCCC2)nnc1-c1ccccn1` the “re-replication activation” value was inactive: -2.06%. With `Cc1cccnc1CN1CCN(Cc2nc(C(c3ccccc3)c3ccccc3)no2)CC1` the Potency was inconclusive: 29.1 µM [activator, partial curve, poor fit]. In the case of `COc1cc(S(=O)(=O)N2CCOCC2)ccc1N`, the “re-replication activation” value is reported as inactive: -8.68%. In the case of `O=C(N/N=C/c1ccccn1)c1cc(-c2cccc3ccccc23)n[nH]1`, the “re-replication activation” value is reported as inactive: 27.1%. For `COc1cccc(-c2c(-c3cc(OC)cc(OC)c3)n(C)c3ccc(-c4cnc(OC)nc4)cc23)c1`, the “re-replication activation” value was inactive: 2.2%. With `O=C(c1ccc2c(=O)n(Cc3ccc(Cl)cc3)c(=S)[nH]c2c1)N1CCCC1` the “re-replication activation” value was inactive: 30.7%. For `COc1ccc(CN2CCNC(=O)C2CC(=O)NC2CCCCCCC2)cc1OC` (stereo not drawn), the Potency was inconclusive: 29.1 µM [activator, single point]. With `O=C1Nc2ccccc2C(=O)C1(Cl)Cc1ccccc1` (stereo not drawn) the Potency was inconclusive: 29.1 µM [activator, single point]. In the case of `CC(C)N(C1=N/C(=C\c2ccco2)C(=O)N1c1ccccc1)C(C)C`, the Potency is reported as inconclusive: 6.51 µM [activator, full curve]. With `FC(F)(F)c1cccc(CN2CCC(c3cc(-c4cccs4)n[nH]3)CC2)c1` the Potency was inconclusive: 18.4 µM [activator, partial curve, poor fit]. In the case of `O=C(O)c1ccc(NC(=O)C2(c3ccccc3)CCCC2)cc1`, the Potency is reported as inconclusive: 0.731 µM [activator, full curve, poor fit]. With `CCOc1ccccc1CNS(=O)(=O)c1ccc(-c2cnc(C3CC3)o2)cc1` the Potency was inconclusive: 7.31 µM [activator, partial curve, poor fit]. In the case of `CSc1ccc(C2C(C#N)=C(N)Oc3cc4c(cc32)OCO4)cc1` (stereo not drawn), the Potency is reported as inconclusive: 29.1 µM [activator, single point]. With `COc1ccc(CN(C)C(=O)COC(=O)c2cc([N+](=O)[O-])ccc2N2CCCC2)c(OC)c1OC` the “re-replication activation” value was inactive: 1.72%. With `CCCN(C1CCS(=O)(=O)C1)S(=O)(=O)c1ccc(F)cc1` (stereo not drawn) the “re-replication activation” value was inactive: 78.5%. With `CNC(=O)c1ccc(NC(=O)c2cccc(C(F)(F)F)c2)cc1` the Potency was inconclusive: 3.66 µM [activator, partial curve, poor fit]. For `COCCNC(=S)N/N=C(\C)CCc1ccc2c(c1)OCO2`, the Potency was inconclusive: 18.4 µM [activator, single point]. For `CCOC(=O)N1CCN(S(=O)(=O)c2ccc(C)cc2)C1`, the Potency was inconclusive: 0.291 µM [activator, full curve, poor fit]. In the case of `O=c1nc(-c2ccccc2)c2cc(Br)ccc2[nH]1`, the Potency is reported as inconclusive: 16.4 µM [activator, single point]. With `O=C(Oc1ccccc1)c1ccc(COC(=O)c2cnccn2)cc1` the Potency was inconclusive: 20 µM [activator, single point]. With `Cc1nc2c(=O)n(C)c(=O)n(C)c2nc1Cl` the Potency was inconclusive: 3.26 µM [activator, full curve, poor fit]. With `COc1ccc(N2CCN(C(c3ccccc3OC)c3nnnn3C3CCCC3)CC2)cc1` (stereo not drawn) the “re-replication activation” value was inactive: 1.45%. With `COc1ccc(OC)c(N/C=C/C(=C(C#N)C#N)N(C)C)c1` the “re-replication activation” value was inactive: 0.485%. In the case of `COC(C(=O)Nc1ccc(S(=O)(=O)Nc2ccc(F)cc2)cc1)c1ccccc1` (stereo not drawn), the Potency is reported as inconclusive: 25.9 µM [activator, single point]. In the case of `CCC(C)(C)NC(=O)CCCSc1nc2ccccc2[nH]1`, the Potency is reported as inconclusive: 29.1 µM [activator, single point]. For `Cc1cc(C)n(-c2nc(NC(C)C)nc(NC(C)C)n2)n1`, the Potency was active: 2.91 µM. With `O=C(NCCc1ccccc1)c1ccc2nc3cc(Cl)ccc3c(=O)n2c1` the Potency was inconclusive: 6.51 µM [activator, partial curve, poor fit]. With `CCCn1c(C)cc(C(=O)COc2ccc(C)nc2[N+](=O)[O-])c1C` the Potency was inconclusive: 29.1 µM [activator, single point]. For `Cc1cc(NC(=O)COc2coc(CN3CCN(c4ccccc4F)CC3)cc2=O)no1`, the “re-replication activation” value was inactive: -35.5%. In the case of `CCOc1ccc(C2OCCC(C)O2)cc1OC` (stereo not drawn), the “re-replication activation” value is reported as inactive: 4.61%. With `O=C(OCC(=O)N1CCN(c2ccc(F)cc2)CC1)c1cnc2ccccc2n1` the “re-replication activation” value was inactive: -14.7%. For `CCn1c(-c2ccc[nH]c2=O)nc2ccccc21`, the “re-replication activation” value was inactive: -13.1%. In the case of `COc1ccc(OCC(=O)Nc2ccc(OC)c(S(=O)(=O)N3CCCCC3)c2)cc1`, the Potency is reported as active: 16.4 µM. For `CCN(C(=O)COC(=O)c1ccc(-n2c(C)ccc2C)cc1)c1c(N)n(Cc2ccccc2)c(=O)[nH]c1=O`, the “re-replication activation” value was inactive: 14.5%. With `O=C(Nc1ccc(F)cc1)Nc1ccc2ccccc2n1` the Potency was inconclusive: 8.2 µM [activator, partial curve, poor fit]. With `NC(=O)c1ccc(NC(=O)C#Cc2ccccc2)cc1` the Potency was active: 14.6 µM. In the case of `Cc1cc(C(=O)CCl)c(C)n1Cc1ccco1`, the Potency is reported as inconclusive: 29.1 µM [activator, single point]. With `O=C(N/N=C/c1ccc2c(c1)OCO2)c1cc(-c2ccccc2)nc2ccccc12` the “re-replication activation” value was inactive: 9.86%. For `CC(C)(C)OC(=O)N1CCNc2ccccc2C1`, the “re-replication activation” value was inactive: -5.02%. For `Fc1ccccc1-c1csc(=Nc2cccnc2)n1CC1CCCO1` (stereo not drawn), the Potency was inconclusive: 29.1 µM [activator, single point]. In the case of `CC1=C(C(=O)OCC2CCCO2)C(c2ccc(C)cc2)C2=C(CC(C)(C)CC2=O)N1` (stereo not drawn), the Potency is reported as inconclusive: 18.4 µM [activator, single point]. In the case of `CC(C)=C(NC(=O)c1ccccc1)C(=O)N/N=C(\C)c1ccccc1O`, the Potency is reported as inconclusive: 29.1 µM [activator, single point]. In the case of `COc1ccc(/C=C/C(=O)c2ccccc2O)cc1CN1CCOCC1`, the Potency is reported as inconclusive: 18.4 µM [activator, single point]. In the case of `CCCCC(CC)Cn1c(N)c(C#N)c2nc3ccccc3nc21` (stereo not drawn), the Potency is reported as active: 9.2 µM.
